# The other results are listed elsewhere or left out. Small differences around the control level are noise.
# Amino acid sequences for entries named in this document (tags omitted). A change or cut given only in a name is not applied to a line headed by its entry.
# UniProt Q8K2I4: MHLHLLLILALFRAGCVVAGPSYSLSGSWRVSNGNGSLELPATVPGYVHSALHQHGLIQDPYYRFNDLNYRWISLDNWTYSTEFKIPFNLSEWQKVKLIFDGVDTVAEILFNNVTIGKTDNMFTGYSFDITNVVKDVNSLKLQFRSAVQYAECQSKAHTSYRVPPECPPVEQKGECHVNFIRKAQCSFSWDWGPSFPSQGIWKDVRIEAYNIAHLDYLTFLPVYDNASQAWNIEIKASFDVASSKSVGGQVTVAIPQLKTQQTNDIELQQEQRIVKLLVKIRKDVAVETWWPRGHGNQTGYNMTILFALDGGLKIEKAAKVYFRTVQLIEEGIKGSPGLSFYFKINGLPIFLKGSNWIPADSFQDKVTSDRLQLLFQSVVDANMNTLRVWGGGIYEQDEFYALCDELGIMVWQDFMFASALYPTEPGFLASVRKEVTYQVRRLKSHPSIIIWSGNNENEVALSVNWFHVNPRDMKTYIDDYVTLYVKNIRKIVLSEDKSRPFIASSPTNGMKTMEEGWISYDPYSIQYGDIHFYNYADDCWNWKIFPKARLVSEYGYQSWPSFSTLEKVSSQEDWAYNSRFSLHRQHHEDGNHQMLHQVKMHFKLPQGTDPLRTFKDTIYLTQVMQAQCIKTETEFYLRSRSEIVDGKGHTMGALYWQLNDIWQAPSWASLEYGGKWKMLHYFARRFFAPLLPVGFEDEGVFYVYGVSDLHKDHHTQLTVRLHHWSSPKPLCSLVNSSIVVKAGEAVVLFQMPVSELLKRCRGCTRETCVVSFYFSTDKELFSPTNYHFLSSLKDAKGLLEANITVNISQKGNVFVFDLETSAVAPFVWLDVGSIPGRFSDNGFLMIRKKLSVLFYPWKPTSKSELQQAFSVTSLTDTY
# UniProt Q8K2B3: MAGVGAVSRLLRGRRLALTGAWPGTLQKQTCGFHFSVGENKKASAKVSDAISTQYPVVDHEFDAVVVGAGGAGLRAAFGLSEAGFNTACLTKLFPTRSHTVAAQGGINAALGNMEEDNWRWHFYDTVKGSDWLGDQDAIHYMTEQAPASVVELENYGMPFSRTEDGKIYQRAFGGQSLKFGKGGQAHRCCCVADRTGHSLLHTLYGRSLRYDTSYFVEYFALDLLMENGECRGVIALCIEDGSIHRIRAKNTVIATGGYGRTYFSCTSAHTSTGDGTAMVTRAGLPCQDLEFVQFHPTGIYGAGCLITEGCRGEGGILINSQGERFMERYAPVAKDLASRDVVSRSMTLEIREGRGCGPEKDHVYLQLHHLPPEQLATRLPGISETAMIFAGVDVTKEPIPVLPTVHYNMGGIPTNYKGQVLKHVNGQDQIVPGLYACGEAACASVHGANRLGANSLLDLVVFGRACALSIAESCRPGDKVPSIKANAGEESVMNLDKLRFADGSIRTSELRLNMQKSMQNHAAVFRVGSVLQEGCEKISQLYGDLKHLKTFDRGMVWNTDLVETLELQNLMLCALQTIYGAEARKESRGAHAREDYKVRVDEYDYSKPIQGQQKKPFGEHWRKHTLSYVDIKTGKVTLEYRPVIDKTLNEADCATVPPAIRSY
# UniProt Q8R3Q6: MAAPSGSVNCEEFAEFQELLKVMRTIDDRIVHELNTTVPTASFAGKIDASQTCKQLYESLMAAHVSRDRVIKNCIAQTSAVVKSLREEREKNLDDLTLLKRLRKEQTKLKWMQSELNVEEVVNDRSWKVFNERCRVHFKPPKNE
# UniProt Q8VCM5: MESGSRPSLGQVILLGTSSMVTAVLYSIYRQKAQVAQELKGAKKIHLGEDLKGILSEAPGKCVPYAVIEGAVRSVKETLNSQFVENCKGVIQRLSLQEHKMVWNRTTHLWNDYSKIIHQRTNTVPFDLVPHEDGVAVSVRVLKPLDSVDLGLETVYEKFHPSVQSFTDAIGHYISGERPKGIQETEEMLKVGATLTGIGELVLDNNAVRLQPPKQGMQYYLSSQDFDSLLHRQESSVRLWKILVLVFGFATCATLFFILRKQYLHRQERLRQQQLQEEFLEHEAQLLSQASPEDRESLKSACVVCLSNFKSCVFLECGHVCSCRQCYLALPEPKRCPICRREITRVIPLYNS
# UniProt Q8K1A5: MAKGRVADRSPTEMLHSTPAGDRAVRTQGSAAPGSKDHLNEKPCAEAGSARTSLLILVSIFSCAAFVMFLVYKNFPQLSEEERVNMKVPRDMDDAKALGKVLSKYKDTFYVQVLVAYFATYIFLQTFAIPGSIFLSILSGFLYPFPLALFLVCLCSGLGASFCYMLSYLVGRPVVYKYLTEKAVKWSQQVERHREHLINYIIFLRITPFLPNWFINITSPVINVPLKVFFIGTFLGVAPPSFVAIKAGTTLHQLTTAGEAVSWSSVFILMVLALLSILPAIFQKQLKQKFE
# UniProt Q8CI51: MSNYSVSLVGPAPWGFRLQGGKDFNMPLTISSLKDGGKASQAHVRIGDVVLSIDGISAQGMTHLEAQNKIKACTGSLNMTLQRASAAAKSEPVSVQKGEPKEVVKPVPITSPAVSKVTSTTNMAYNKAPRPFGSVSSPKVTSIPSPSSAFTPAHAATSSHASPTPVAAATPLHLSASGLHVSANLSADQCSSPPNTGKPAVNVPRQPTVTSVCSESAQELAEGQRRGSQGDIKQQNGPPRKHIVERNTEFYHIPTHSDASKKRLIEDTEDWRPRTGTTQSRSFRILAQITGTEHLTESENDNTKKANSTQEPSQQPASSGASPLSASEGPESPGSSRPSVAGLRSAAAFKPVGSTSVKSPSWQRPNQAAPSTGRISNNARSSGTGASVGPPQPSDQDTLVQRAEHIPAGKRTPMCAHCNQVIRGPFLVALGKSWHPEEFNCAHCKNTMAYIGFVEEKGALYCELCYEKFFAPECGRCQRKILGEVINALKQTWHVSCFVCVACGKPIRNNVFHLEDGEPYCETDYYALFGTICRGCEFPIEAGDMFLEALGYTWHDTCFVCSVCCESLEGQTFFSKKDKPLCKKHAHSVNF
# UniProt Q8CHY3: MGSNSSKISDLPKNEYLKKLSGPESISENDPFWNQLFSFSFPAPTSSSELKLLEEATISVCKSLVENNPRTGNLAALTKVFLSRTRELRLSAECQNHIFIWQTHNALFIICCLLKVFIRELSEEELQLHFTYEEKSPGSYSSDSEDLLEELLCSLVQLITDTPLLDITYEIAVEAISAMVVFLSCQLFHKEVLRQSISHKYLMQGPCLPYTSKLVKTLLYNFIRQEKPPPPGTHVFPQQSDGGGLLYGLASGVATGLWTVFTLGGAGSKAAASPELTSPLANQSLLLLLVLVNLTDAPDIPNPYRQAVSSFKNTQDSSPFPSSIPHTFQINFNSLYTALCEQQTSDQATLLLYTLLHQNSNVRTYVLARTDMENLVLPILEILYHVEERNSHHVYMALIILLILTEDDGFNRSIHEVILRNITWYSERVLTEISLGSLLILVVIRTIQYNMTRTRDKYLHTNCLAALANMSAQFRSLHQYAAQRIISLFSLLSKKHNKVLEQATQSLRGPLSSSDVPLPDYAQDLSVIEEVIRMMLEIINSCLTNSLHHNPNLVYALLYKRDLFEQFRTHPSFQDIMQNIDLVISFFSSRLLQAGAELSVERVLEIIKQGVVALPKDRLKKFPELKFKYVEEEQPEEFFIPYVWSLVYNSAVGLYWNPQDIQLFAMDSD
# UniProt Q8R3P9: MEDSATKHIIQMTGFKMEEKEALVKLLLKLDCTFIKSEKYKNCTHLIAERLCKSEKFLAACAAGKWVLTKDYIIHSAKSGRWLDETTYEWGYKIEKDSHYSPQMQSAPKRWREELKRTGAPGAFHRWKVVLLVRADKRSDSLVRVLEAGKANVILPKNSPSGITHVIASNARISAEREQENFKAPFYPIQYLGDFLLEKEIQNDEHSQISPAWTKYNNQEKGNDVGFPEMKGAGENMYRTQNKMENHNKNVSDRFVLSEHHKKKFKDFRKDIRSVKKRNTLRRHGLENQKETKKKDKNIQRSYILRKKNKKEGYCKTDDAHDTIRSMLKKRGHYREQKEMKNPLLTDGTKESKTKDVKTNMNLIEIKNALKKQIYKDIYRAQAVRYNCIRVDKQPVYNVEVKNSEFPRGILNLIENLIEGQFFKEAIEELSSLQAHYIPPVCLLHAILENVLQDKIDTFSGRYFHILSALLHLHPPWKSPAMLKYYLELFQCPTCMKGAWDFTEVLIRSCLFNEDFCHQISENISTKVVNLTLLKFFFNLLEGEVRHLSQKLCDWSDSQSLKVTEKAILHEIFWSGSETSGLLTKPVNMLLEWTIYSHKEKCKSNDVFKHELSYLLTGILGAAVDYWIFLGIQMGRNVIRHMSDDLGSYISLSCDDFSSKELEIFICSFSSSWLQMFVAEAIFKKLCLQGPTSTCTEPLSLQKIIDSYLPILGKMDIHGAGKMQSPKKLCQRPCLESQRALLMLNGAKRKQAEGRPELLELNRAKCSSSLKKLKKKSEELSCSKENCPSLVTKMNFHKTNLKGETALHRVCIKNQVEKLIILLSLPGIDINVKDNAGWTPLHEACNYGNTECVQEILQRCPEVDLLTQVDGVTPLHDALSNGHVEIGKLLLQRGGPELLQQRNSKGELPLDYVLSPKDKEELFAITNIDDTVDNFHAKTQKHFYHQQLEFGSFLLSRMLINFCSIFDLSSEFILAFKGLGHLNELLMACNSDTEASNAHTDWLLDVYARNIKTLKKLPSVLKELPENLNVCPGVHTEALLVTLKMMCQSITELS
# UniProt Q8R1X6: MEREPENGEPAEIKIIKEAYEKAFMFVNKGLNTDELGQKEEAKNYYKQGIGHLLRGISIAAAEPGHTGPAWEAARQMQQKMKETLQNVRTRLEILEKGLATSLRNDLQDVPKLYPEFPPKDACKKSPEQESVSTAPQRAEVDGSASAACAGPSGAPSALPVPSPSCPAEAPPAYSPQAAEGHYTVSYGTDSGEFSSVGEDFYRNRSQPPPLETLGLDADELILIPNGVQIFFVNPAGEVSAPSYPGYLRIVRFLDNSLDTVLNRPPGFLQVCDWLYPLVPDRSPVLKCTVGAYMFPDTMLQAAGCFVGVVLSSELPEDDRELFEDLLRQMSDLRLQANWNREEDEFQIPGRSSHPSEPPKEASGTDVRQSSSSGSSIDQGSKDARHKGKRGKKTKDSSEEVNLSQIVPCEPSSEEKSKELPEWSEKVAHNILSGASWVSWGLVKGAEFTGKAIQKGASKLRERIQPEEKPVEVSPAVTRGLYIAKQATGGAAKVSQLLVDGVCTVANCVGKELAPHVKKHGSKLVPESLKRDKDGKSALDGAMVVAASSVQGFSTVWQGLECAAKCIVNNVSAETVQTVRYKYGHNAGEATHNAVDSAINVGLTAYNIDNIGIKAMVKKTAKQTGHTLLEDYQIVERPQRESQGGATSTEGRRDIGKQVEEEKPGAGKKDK
# UniProt Q8R3D1: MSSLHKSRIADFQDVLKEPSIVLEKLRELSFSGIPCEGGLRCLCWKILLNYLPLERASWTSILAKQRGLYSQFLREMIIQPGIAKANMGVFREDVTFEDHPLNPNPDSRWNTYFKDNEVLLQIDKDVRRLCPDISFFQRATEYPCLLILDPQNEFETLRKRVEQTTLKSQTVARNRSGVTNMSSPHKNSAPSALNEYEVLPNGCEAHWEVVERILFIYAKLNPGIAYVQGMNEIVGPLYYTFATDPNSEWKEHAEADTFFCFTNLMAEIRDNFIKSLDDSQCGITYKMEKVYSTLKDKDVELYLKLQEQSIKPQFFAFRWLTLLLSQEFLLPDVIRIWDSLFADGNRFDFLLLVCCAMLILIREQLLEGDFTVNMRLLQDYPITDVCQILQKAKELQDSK
# UniProt Q8K183: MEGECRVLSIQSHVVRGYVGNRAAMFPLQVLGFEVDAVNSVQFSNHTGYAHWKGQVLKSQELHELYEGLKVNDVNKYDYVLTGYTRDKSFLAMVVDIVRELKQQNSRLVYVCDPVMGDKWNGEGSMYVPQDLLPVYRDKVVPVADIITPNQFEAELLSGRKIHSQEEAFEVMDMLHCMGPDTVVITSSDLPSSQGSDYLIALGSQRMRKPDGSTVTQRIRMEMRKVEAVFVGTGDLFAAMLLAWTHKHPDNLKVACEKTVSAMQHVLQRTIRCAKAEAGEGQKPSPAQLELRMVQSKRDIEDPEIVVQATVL
# UniProt Q8QZR3: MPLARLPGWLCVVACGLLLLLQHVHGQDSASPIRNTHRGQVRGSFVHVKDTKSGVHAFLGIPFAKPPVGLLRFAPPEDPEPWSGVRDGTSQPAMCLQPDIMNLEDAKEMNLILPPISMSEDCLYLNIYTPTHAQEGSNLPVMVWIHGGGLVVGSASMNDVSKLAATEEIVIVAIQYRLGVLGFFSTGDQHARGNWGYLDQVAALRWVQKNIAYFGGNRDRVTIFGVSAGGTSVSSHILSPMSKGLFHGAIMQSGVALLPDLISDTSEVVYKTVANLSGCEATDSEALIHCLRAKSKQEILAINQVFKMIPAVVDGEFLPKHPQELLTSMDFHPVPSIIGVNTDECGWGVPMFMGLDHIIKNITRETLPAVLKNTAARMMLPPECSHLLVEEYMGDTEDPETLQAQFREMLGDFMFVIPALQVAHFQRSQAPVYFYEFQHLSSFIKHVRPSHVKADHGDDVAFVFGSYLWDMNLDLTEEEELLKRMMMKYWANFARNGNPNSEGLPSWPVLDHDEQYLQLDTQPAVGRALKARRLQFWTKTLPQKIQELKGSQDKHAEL
# Compound: CN[C@@H]1C[C@H]2O[C@@](C)([C@@H]1OC)n1c3ccccc3c3c4c(c5c6ccccc6n2c5c31)C(=O)NC4 [staurosporine]
# Assay: log2 fold change of pooled soluble protein (PISA), ligand vs vehicle (log2 ratio); higher = more thermally stabilized
# Settings: ligand concentration: 20 uM; assay format: PISA pool 52.9/55.5/58.6 C
row,Target,log2 fold change of pooled soluble protein
1,UniProt Q8K2I4,0.0165
2,UniProt Q8K0C4,0.131
3,UniProt Q8R0X7,-0.0381
4,UniProt Q8R480,-0.195
5,UniProt Q8R2Q8,0.0254
6,UniProt Q8K2C7,0.0539
7,UniProt Q8K2B3,0.024
8,UniProt Q8K1I7,-0.0857
9,UniProt Q8R3Q6,-0.00809
10,UniProt Q8VCH6,-0.0516
11,UniProt Q8K0E8,0.0694
12,UniProt Q8VCM5,-0.0414
13,UniProt Q8K1X1,-0.0244
14,UniProt Q8JZK9,0.125
15,UniProt Q8K1A5,0.0262
16,UniProt Q8K394,-0.113
17,UniProt Q8VBT2,-0.0636
18,UniProt Q8R016,-0.0256
19,UniProt Q8K1N4,-0.11

# 2 entries from above, with tabs:
row	Target	log2 fold change of pooled soluble protein
9	UniProt Q8R3Q6	-0.00809
16	UniProt Q8K394	-0.113

# Next part.

row,Target,log2 fold change of pooled soluble protein
1,UniProt Q8QZY2,0.0385
2,UniProt Q8CI51,-0.00198
3,UniProt Q8K039,0.038
4,UniProt Q8CHY3,-0.046
5,UniProt Q8K327,0.577
6,UniProt Q8R3P9,0.019
7,UniProt Q8R1X6,0.189
8,UniProt Q8CH18,-0.0377
9,UniProt Q8R3D1,0.272
10,UniProt Q8K183,-0.446
11,UniProt Q8K0C8,-0.346
12,UniProt Q8R570,-0.175
13,UniProt Q8VC12,-0.0767
14,UniProt Q8QZR3,-0.0451
15,UniProt Q8VC74,0.0743
16,UniProt Q8R4V5,0.103
17,UniProt Q8CJF9,0.2
18,UniProt Q8CHH9,-0.0565

# Reference: the supplement of paper PMC12819154, “High-throughput peptide-centric local stability assay extends protein–ligand identification to membrane proteins, tissues and bacteria” (Nature Structural & Molecular Biology, 2025)
